Measured values taken from patent US20130142784A1 (The Board of Trustees of the University of Illinois, priority 2010, published 2013).
Results are given in words; binding and its absence hold for the method and conditions named. Some entries that bind do so weakly or less than the wild type.

Biological target: T1, Rb1 in MDA-MB-453 cells (human (in the human cell line MDA-MB-453)) (UniProt P06400)
T1 sequence (looked up): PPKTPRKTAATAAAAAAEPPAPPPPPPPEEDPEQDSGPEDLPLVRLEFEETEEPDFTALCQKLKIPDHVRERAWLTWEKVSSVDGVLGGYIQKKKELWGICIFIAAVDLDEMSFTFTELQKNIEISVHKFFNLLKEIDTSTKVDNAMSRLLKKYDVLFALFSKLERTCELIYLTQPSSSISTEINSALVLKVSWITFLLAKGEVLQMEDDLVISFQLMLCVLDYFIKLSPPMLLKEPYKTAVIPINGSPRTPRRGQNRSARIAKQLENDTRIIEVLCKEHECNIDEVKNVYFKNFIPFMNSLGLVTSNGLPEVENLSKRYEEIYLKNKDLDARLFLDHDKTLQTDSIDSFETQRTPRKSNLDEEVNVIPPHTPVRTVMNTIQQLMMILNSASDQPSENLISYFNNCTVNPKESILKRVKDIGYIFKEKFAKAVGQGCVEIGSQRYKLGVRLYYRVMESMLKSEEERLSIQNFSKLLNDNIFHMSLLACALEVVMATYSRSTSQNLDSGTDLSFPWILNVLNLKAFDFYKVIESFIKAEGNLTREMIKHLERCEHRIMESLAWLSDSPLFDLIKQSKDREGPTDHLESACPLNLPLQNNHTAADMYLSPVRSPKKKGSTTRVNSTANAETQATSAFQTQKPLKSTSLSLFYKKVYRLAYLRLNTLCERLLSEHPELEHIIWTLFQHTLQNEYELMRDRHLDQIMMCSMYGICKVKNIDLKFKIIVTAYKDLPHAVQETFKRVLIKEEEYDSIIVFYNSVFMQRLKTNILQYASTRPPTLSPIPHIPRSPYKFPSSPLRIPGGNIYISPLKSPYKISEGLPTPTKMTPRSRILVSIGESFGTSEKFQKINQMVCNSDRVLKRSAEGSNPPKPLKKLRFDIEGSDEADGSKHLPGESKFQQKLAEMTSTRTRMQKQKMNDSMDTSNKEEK
Experiment: western blot of endogenous proteins in MDA-MB-453 cells

B1: endogenous FoxM1 in MDA-MB-453 cells (protein, UniProt Q08050 1-763, looked up)
chain: MKTSPRRPLILKRRRLPLPVQNAPSETSEEEPKRSPAQQESNQAEASKEVAESNSCKFPAGIKIINHPTMPNTQVVAIPNNANIHSIITALTAKGKESGSSGPNKFILISCGGAPTQPPGLRPQTQTSYDAKRTEVTLETLGPKPAARDVNLPRPPGALCEQKRETCADGEAAGCTINNSLSNIQWLRKMSSDGLGSRSIKQEMEEKENCHLEQRQVKVEEPSRPSASWQNSVSERPPYSYMAMIQFAINSTERKRMTLKDIYTWIEDHFPYFKHIAKPGWKNSIRHNLSLHDMFVRETSANGKVSFWTIHPSANRYLTLDQVFKPLDPGSPQLPEHLESQQKRPNPELRRNMTIKTELPLGARRKMKPLLPRVSSYLVPIQFPVNQSLVLQPSVKVPLPLAASLMSSELARHSKRVRIAPKVLLAEEGIAPLSSAGPGKEEKLLFGEGFSPLLPVQTIKEEEIQPGEEMPHLARPIKVESPPLEEWPSPAPSFKEESSHSWEDSSQSPTPRPKKSYSGLRSPTRCVSEMLVIQHRERRERSRSRRKQHLLPPCVDEPELLFSEGPSTSRWAAELPFPADSSDPASQLSYSQEVGGPFKTPIKETLPISSTPSKSVLPRTPESWRLTPPAKVGGLDFSPVQTSQGASDPLPDPLGLMDLSTTPLQSAPPLESPQRLLSSEPLDLISVPFGNSSPSDIDVPKPGSPEPQVSGLAANRSLTEGLVLDTMNDSLSKILLDISFPGLDEDPLGPDNINWSQFIPELQ
  binding: binds
